Experiment [1] concerns the target T1, C8 acylated human ghrelin (1-28) (human).
T1 sequence (peptide, n-octanoyl group on the serine at position three (Ser3)): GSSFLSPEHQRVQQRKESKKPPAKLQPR
The experiment is described as follows: KinExA. A general note: In KinExA the mixture passes briefly over coated beads that capture the unbound partner.

Experiment [2] shares this target. The experiment is described as follows: KinExA and BIAcore SPR, taken together.

Results on one molecule are retold here after patent US20080118498A1.

No constants are given. Whether binding was seen depends on the method and setting. Some results given as binding are weak or reduced against the parent protein; the word gives no strength.

B1: Humanized, affinity matured C2 anti-ghrelin Fab 7b2 (Fab, V domains shown)
VH: QVQLVQSGAEVKKPGASVKVSCKATGYIFTGYWIEWVRQAPGQGLEWMGDILPGSGSPNYNEKFKGRVTMTTDTSTSTAYMELRSLRSDDTAVYYCARYPIFRLRTERIAEWGQGTLVTVSS
VL: DIVMTQSPDSLAVSLGERATINCRASKSVSLLGYSYMHWYQQKPGQPPKLLIYFASNLESGVPDRFSGSGSGTDFTLTISSLQAEDVAVYYCQHSIEEPYTFGQGTKLEIK
B1: the binding result in experiment [1] and in experiment [2] was “binds” each time.
